Source: the supplement of paper PMC12823440, “Inhibitors supercharge kinase turnover through native proteolytic circuits” (Nature, 2025)
Where a name gives a salt, the structure may show the parent alone. Some of the results follow. The calls rarely recur for the same compound in another form.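 In K562 cells expressing nanoluciferase-fused kinases, luminescence was recorded at 4 h intervals between 2 and 18 h, normalized as percent of control with DMSO at 100% and a positive control at 0%. A significant (2 sigma) signal drop marks a time point as decreased. The authors' rule for a hit is not shown and takes in more than the number of time points.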

The chains behind the UniProt entries cited, without tags or fusion partners. Where a name states a change or a piece, a line headed by the entry shows the natural chain unless it says otherwise.
UniProt O15530: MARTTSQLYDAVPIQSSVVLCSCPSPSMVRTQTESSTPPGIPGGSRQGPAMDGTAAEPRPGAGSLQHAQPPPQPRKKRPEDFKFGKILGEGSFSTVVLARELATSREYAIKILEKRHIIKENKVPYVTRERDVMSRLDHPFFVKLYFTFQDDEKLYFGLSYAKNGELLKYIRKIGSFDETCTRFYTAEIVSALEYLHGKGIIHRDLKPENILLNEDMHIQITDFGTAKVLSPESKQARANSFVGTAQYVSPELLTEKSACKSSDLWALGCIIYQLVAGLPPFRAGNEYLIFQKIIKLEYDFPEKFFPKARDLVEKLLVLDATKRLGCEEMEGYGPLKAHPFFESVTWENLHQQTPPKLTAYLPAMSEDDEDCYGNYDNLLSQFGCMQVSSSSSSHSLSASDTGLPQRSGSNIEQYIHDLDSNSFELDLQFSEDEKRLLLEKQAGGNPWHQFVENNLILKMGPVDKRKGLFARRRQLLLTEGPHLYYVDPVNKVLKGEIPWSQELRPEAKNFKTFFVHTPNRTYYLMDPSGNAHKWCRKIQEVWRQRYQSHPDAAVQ
UniProt P42356, whole entry, looked up: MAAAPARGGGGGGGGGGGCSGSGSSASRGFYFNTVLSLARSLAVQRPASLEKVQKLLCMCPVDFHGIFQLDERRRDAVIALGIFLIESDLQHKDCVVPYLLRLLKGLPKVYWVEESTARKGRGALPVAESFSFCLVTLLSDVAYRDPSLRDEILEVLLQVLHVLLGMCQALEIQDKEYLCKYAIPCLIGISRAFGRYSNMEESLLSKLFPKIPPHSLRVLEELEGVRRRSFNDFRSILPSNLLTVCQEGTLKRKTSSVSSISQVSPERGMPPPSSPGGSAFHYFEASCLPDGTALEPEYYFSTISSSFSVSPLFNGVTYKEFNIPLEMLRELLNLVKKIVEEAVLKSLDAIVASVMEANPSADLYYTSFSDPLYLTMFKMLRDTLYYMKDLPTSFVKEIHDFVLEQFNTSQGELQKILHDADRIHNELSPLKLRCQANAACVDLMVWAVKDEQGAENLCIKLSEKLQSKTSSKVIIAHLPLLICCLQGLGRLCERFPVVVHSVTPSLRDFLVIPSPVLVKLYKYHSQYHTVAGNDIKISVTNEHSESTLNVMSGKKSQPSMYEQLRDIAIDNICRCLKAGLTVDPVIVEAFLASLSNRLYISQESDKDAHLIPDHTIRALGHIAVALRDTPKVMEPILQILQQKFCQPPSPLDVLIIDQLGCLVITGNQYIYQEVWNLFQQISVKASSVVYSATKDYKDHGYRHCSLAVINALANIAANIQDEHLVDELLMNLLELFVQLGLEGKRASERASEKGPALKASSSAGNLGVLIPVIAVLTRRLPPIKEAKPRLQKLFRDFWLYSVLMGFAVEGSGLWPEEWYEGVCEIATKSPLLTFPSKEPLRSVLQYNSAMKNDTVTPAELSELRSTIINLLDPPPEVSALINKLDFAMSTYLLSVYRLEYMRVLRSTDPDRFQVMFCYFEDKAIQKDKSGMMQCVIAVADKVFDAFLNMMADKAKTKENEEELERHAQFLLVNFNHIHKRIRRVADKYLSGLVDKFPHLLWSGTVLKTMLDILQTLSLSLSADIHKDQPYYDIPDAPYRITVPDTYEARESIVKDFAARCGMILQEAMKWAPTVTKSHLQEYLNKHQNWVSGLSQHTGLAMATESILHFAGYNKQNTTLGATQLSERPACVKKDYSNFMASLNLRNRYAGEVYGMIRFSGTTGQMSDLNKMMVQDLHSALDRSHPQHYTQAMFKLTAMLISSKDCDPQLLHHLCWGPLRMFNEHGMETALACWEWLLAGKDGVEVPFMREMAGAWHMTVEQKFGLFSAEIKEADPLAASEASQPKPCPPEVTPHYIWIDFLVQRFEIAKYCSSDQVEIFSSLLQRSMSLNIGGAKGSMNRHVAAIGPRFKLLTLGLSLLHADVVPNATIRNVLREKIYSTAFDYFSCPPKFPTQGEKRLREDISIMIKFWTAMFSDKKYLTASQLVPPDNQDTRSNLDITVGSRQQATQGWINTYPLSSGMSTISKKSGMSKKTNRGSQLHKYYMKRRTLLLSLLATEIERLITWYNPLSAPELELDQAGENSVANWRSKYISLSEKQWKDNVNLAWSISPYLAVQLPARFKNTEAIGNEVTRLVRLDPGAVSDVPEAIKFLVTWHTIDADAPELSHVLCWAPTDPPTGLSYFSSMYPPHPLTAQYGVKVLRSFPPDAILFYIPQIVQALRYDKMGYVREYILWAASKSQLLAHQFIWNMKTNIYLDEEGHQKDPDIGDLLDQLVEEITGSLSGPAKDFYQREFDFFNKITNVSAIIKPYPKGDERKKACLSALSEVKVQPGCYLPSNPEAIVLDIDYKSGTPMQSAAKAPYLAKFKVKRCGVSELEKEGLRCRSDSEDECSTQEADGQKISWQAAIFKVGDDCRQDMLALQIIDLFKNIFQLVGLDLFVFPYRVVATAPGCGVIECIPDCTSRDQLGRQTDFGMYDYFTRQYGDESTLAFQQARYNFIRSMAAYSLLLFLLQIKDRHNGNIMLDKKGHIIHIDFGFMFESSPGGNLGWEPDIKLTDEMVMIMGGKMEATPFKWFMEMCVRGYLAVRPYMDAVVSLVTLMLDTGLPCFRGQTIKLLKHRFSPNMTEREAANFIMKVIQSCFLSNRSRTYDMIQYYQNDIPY
UniProt Q9UBF8: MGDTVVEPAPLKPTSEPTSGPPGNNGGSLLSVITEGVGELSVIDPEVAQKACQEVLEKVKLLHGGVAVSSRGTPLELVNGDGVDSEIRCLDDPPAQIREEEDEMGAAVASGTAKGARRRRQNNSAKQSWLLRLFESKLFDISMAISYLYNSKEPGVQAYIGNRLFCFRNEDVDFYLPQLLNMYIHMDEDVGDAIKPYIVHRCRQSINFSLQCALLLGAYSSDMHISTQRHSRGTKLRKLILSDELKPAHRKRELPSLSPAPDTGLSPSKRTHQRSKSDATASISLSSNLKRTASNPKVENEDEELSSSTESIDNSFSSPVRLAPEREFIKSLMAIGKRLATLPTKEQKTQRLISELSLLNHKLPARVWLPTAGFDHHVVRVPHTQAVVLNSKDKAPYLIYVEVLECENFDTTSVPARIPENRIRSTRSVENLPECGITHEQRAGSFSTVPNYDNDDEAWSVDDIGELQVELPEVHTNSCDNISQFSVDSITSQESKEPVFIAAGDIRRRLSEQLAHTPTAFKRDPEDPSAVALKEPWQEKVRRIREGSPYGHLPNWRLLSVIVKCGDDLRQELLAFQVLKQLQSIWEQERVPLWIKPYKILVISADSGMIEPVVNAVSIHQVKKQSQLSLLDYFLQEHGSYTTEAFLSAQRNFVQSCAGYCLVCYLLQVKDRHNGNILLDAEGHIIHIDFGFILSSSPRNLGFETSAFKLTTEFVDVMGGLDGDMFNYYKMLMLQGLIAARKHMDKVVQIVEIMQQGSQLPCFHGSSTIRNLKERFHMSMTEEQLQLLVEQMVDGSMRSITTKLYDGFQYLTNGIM
UniProt Q13131: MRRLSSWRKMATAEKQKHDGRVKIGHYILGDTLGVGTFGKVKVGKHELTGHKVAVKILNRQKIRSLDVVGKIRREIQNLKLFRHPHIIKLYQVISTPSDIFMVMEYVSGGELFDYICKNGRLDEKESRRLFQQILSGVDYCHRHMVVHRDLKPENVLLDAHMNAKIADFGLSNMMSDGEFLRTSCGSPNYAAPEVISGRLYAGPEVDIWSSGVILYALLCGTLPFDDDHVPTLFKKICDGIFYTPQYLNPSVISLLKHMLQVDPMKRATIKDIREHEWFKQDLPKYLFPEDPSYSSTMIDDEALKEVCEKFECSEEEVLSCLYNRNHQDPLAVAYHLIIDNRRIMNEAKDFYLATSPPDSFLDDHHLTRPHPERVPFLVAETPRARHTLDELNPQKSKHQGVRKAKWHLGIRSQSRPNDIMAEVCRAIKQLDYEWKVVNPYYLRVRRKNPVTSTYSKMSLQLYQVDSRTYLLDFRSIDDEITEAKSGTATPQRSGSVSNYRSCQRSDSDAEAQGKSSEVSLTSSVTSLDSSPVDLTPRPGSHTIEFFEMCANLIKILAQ
UniProt Q05397, whole entry, looked up: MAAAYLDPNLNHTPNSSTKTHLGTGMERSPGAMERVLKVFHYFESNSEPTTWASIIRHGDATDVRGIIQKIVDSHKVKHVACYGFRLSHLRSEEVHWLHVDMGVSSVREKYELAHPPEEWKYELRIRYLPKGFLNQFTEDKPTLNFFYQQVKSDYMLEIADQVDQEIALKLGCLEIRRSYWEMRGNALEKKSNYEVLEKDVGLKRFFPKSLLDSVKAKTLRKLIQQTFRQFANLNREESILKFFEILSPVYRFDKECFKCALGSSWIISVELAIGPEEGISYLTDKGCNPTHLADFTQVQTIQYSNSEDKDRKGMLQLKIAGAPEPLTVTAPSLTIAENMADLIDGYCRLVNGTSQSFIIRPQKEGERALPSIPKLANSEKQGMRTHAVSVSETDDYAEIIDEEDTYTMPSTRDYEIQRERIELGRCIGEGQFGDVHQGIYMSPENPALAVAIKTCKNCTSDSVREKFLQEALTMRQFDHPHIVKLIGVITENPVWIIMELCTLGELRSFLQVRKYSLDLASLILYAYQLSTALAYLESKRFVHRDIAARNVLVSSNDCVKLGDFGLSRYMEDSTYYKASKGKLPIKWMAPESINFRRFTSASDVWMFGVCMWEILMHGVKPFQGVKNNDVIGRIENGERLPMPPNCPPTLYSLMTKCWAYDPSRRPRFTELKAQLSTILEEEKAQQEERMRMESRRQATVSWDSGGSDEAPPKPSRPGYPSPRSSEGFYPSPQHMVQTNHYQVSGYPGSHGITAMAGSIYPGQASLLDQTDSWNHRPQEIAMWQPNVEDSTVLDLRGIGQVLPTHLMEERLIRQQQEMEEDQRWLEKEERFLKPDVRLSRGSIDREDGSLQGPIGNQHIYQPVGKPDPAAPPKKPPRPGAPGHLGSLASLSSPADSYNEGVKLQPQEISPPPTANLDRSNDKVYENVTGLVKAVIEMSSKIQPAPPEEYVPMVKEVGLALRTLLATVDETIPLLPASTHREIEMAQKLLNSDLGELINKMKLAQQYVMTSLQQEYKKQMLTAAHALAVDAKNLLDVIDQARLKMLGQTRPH
UniProt Q14289, whole entry, looked up: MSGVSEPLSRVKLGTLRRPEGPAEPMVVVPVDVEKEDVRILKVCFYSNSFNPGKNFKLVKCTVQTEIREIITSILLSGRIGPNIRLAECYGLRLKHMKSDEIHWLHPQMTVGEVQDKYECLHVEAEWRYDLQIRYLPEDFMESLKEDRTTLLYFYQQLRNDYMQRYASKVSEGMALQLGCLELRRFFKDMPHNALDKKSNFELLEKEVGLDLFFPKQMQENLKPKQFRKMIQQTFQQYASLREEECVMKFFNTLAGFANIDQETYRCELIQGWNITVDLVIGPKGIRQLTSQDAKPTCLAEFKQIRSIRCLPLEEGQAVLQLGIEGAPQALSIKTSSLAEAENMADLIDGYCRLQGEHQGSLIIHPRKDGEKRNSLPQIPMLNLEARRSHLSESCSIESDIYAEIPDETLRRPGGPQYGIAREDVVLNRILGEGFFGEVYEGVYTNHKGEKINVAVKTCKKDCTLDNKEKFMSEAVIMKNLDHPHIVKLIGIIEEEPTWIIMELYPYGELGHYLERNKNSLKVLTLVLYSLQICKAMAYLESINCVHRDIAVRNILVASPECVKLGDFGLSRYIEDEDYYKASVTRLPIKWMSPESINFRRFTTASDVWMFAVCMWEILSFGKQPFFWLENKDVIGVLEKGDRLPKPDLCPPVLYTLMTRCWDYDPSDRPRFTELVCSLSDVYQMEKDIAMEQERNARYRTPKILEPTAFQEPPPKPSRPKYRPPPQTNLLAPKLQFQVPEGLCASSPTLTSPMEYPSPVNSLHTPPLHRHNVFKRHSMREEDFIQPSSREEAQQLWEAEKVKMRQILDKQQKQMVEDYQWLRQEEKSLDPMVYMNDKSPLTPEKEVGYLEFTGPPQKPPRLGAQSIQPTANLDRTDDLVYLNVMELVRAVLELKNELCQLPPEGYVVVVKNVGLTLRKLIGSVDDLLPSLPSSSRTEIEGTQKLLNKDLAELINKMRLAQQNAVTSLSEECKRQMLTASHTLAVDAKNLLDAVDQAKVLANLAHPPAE

Key:
Experiment in all cases: kinase-Nluc reporter destabilization hit call (1 = scored as downregulated) (binary); higher = compound decreases kinase abundance
Settings in all cases: K562; 2-18 h
PDPK1 = PDPK1 (UniProt O15530)
PIK4CA = PIK4CA (UniProt P42356)
PIK4CB = PIK4CB (UniProt Q9UBF8)
PLK1 = PLK1 (UniProt P53350)
PRKAA1 = PRKAA1 (UniProt Q13131)
PRKCA = PRKCA (UniProt P17252)
PTK2 = PTK2 (UniProt Q05397)
PTK2B = PTK2B (UniProt Q14289)
RAF1 = RAF1 (UniProt P04049)
[1] = biological target: RAF1_S257L (clone: RAF1_mut) (UniProt P04049)

Measured: kinase-Nluc reporter destabilization hit call

Cc1cc(Nc2cc(Cl)nc(Oc3ccc([N+](=O)[O-])cc3)n2)n[nH]1 [Autophinib] (2.5 µM)
inactive: PDPK1 = 0 | PIK4CA 0 | PIK4CB 0 | PLK1 = 0 | PRKAA1 = 0 | PRKCA 0 | PTK2 = 0 | PTK2B 0 | RAF1 = 0 | [1] 0

COC1(C(=O)N2Cc3nc(Cl)nc(N[C@H](C)c4cc(N)cc(C(F)(F)F)c4)c3C2)CCOCC1 (10 µM)
inactive: PDPK1 = 0 | PIK4CA 0 | PIK4CB 0 | PLK1 = 0 | PRKAA1 = 0 | PRKCA 0 | PTK2 = 0 | PTK2B 0 | RAF1 = 0 | [1] 0

CC1CN(C(=O)Nc2ccc(Cl)c(Cl)c2)C(=Nc2ccc(F)cc2)S1 (stereo not given) (10 µM)
inactive: PDPK1 = 0 | PIK4CA 0 | PIK4CB 0 | PLK1 = 0 | PRKAA1 = 0 | PRKCA 0 | PTK2 = 0 | PTK2B 0 | RAF1 = 0 | [1] 0

c1cn2cc(-c3ccc4cn[nH]c4c3)nc(Nc3ccc(N4CCOCC4)cc3)c2n1 [Entospletinib] (10 µM)
inactive: PDPK1 = 0 | PIK4CA 0 | PIK4CB 0 | PLK1 = 0 | PRKAA1 = 0 | PRKCA 0 | PTK2 = 0 | PTK2B 0 | RAF1 = 0 | [1] 0

Cc1cc(NC(=O)c2cccc(NC(=O)/C=C/CN(C)C)c2)ccc1Nc1nccc(-c2cccnc2)n1 (10 µM)
inactive: PDPK1 = 0 | PIK4CA 0 | PIK4CB 0 | PLK1 = 0 | PRKAA1 = 0 | PRKCA 0 | PTK2 = 0 | PTK2B 0 | RAF1 = 0 | [1] 0

CS(=O)(=O)c1ccc(-c2cnc(N)c(C(=O)Nc3ccccc3)n2)cc1 (10 µM)
inactive: PDPK1 = 0 | PIK4CA 0 | PIK4CB 0 | PLK1 = 0 | PRKAA1 = 0 | PRKCA 0 | PTK2 = 0 | PTK2B 0 | RAF1 = 0 | [1] 0

CC(C)CN(CC(=O)N1CCN(CC(OCc2ccc3ccccc3c2)c2ccc(Cl)cc2Cl)CC1)CC(C)C (stereo not given) [LYN-1604 (dihydrochloride)] (2.5 µM)
inactive: PDPK1 = 0 | PIK4CA 0 | PIK4CB 0 | PLK1 = 0 | PRKAA1 = 0 | PRKCA 0 | PTK2 = 0 | PTK2B 0 | RAF1 = 0 | [1] 0

COc1c(NC(=O)C(=O)c2ccc(OCCN3CCOCC3)c3ccccc23)cc(C(C)(C)C)cc1NS(C)(=O)=O (2.5 µM)
inactive: PDPK1 = 0 | PIK4CA 0 | PIK4CB 0 | PLK1 = 0 | PRKAA1 = 0 | PRKCA 0 | PTK2 = 0 | PTK2B 0 | RAF1 = 0 | [1] 0

O=[N+]([O-])c1cc(C(F)(F)F)cc([N+](=O)[O-])c1NNC(=S)Nc1ccc(F)cc1 (10 µM)
inactive: PDPK1 = 0 | PIK4CA 0 | PIK4CB 0 | PLK1 = 0 | PRKAA1 = 0 | PRKCA 0 | PTK2 = 0 | PTK2B 0 | RAF1 = 0 | [1] 0

CC(C)CC1(O)CCN(C(=O)c2ccc(NS(=O)(=O)c3cccc4nccnc34)cc2)CC1 (10 µM)
inactive: PDPK1 = 0 | PIK4CA 0 | PIK4CB 0 | PLK1 = 0 | PRKAA1 = 0 | PRKCA 0 | PTK2 = 0 | PTK2B 0 | RAF1 = 0 | [1] 0

CN(C)CCN(Cc1ccc(Cl)cc1)c1ccccn1 [Chloropyramine hydrochloride] (10 µM)
inactive: PDPK1 = 0 | PIK4CA 0 | PIK4CB 0 | PLK1 = 0 | PRKAA1 = 0 | PRKCA 0 | PTK2 = 0 | PTK2B 0 | RAF1 = 0 | [1] 0

Nc1cc(Nc2ccc(S(N)(=O)=O)cc2)ncn1 (10 µM)
inactive: PDPK1 = 0 | PIK4CA 0 | PIK4CB 0 | PLK1 = 0 | PRKAA1 = 0 | PRKCA 0 | PTK2 = 0 | PTK2B 0 | RAF1 = 0 | [1] 0

CC(=NNC(=O)c1ccc(C)c(Br)c1)c1ccc(O)cc1O [mTOR inhibitor-1] (2.5 µM)
inactive: PDPK1 = 0 | PIK4CA 0 | PIK4CB 0 | PLK1 = 0 | PRKAA1 = 0 | PRKCA 0 | PTK2 = 0 | PTK2B 0 | RAF1 = 0 | [1] 0

O=C(/C=C/c1ccc(O[C@@H]2O[C@H](CO)[C@@H](O)[C@H](O)[C@H]2O[C@@H]2OC[C@](O)(CO)[C@H]2O)cc1)c1ccc(O)cc1O [Isoliquiritin apioside] (10 µM)
inactive: PDPK1 = 0 | PIK4CA 0 | PIK4CB 0 | PLK1 = 0 | PRKAA1 = 0 | PRKCA 0 | PTK2 = 0 | PTK2B 0 | RAF1 = 0 | [1] 0

COc1cc(S(C)(=O)=O)ccc1Nc1nc2ccc(-c3ccc(NC(=O)[C@H](C)c4ccc(F)cc4)cc3)cn2n1 [Empesertib] (10 µM)
inactive: PDPK1 = 0 | PIK4CA 0 | PIK4CB 0 | PLK1 = 0 | PRKAA1 = 0 | PRKCA 0 | PTK2 = 0 | PTK2B 0 | RAF1 = 0 | [1] 0

Cc1ccc(S(=O)(=O)Nc2ccccc2C=Nc2ccccc2NS(=O)(=O)c2ccc(C)cc2)cc1 (10 µM)
inactive: PDPK1 = 0 | PIK4CA 0 | PIK4CB 0 | PLK1 = 0 | PRKAA1 = 0 | PRKCA 0 | PTK2 = 0 | PTK2B 0 | RAF1 = 0 | [1] 0

Cc1ccc(Oc2nc3cc(-c4ccc5c(ccn5C)c4)c(Cl)cc3[nH]2)cc1C(=O)O (10 µM)
inactive: PDPK1 = 0 | PIK4CA 0 | PIK4CB 0 | PLK1 = 0 | PRKAA1 = 0 | PRKCA 0 | PTK2 = 0 | PTK2B 0 | RAF1 = 0 | [1] 0

O=c1cc(O)cc(/C=C/c2ccc(O)c(O)c2)o1 [Hispidin] (10 µM)
inactive: PDPK1 = 0 | PIK4CA 0 | PIK4CB 0 | PLK1 = 0 | PRKAA1 = 0 | PRKCA 0 | PTK2 = 0 | PTK2B 0 | RAF1 = 0 | [1] 0

COc1cc([N+](=O)[O-])ccc1S(=O)(=O)N1C[C@@H](CN2CCN(c3ccccn3)CC2)[C@H](c2cccc(F)c2)C1 (relative stereo) (10 µM)
inactive: PDPK1 = 0 | PIK4CA 0 | PIK4CB 0 | PLK1 = 0 | PRKAA1 = 0 | PRKCA 0 | PTK2 = 0 | PTK2B 0 | RAF1 = 0 | [1] 0

Already shown: 6 of the compounds above.
O=C(/C=C/c1ccc(O[C@@H]2O[C@H](CO)[C@@H](O)[C@H](O)[C@H]2O[C@@H]2OC[C@](O)(CO)[C@H]2O)cc1)c1ccc(O)cc1O [Isoliquiritin apioside] (10 µM)
inactive: PDPK1 = 0 | PIK4CA 0 | PIK4CB 0 | PLK1 = 0 | PRKAA1 = 0 | PRKCA 0 | PTK2 = 0 | PTK2B 0 | RAF1 = 0 | [1] 0

COc1cc(S(C)(=O)=O)ccc1Nc1nc2ccc(-c3ccc(NC(=O)[C@H](C)c4ccc(F)cc4)cc3)cn2n1 [Empesertib] (10 µM)
inactive: PDPK1 = 0 | PIK4CA 0 | PIK4CB 0 | PLK1 = 0 | PRKAA1 = 0 | PRKCA 0 | PTK2 = 0 | PTK2B 0 | RAF1 = 0 | [1] 0

Cc1ccc(S(=O)(=O)Nc2ccccc2C=Nc2ccccc2NS(=O)(=O)c2ccc(C)cc2)cc1 (10 µM)
inactive: PDPK1 = 0 | PIK4CA 0 | PIK4CB 0 | PLK1 = 0 | PRKAA1 = 0 | PRKCA 0 | PTK2 = 0 | PTK2B 0 | RAF1 = 0 | [1] 0

Cc1ccc(Oc2nc3cc(-c4ccc5c(ccn5C)c4)c(Cl)cc3[nH]2)cc1C(=O)O (10 µM)
inactive: PDPK1 = 0 | PIK4CA 0 | PIK4CB 0 | PLK1 = 0 | PRKAA1 = 0 | PRKCA 0 | PTK2 = 0 | PTK2B 0 | RAF1 = 0 | [1] 0

O=c1cc(O)cc(/C=C/c2ccc(O)c(O)c2)o1 [Hispidin] (10 µM)
inactive: PDPK1 = 0 | PIK4CA 0 | PIK4CB 0 | PLK1 = 0 | PRKAA1 = 0 | PRKCA 0 | PTK2 = 0 | PTK2B 0 | RAF1 = 0 | [1] 0

COc1cc([N+](=O)[O-])ccc1S(=O)(=O)N1C[C@@H](CN2CCN(c3ccccn3)CC2)[C@H](c2cccc(F)c2)C1 (relative stereo) (10 µM)
inactive: PDPK1 = 0 | PIK4CA 0 | PIK4CB 0 | PLK1 = 0 | PRKAA1 = 0 | PRKCA 0 | PTK2 = 0 | PTK2B 0 | RAF1 = 0 | [1] 0

(continued)

CCn1c(=O)c(-c2ccc(-c3cncs3)cc2Cl)cc2cnc(Nc3ccc(N4CCN(C)CC4)cc3)nc21 (2.5 µM)
inactive: PDPK1 = 0 | PIK4CA 0 | PIK4CB 0 | PLK1 = 0 | PRKAA1 = 0 | PRKCA 0 | PTK2 = 0 | PTK2B 0 | RAF1 = 0 | [1] 0

CCn1c(=O)c(-c2ccc(-c3cncc(C)n3)cc2Cl)cc2cnc(NCCC3CCN(C)CC3)nc21 (10 µM)
inactive: PDPK1 = 0 | PIK4CA 0 | PIK4CB 0 | PLK1 = 0 | PRKAA1 = 0 | PRKCA 0 | PTK2 = 0 | PTK2B 0 | RAF1 = 0 | [1] 0

O=C1NC(=O)/C(=C/c2ccc3c(c2)OC(F)(F)O3)S1 (10 µM)
inactive: PDPK1 = 0 | PIK4CA 0 | PIK4CB 0 | PLK1 = 0 | PRKAA1 = 0 | PRKCA 0 | PTK2 = 0 | PTK2B 0 | RAF1 = 0 | [1] 0

CC[C@@]1(c2ccccc2)C2=C(CC(C)(C)CC2=O)Nc2[nH]ncc21 (10 µM)
inactive: PDPK1 = 0 | PIK4CA 0 | PIK4CB 0 | PLK1 = 0 | PRKAA1 = 0 | PRKCA 0 | PTK2 = 0 | PTK2B 0 | RAF1 = 0 | [1] 0

CCc1cc(O)c(F)cc1-c1ccc2c(-c3nc4c([nH]3)CN(C3CCN(C)CC3)CC4)n[nH]c2c1 [JAK-IN-5 (hydrochloride)] (2 µM)
inactive: PDPK1 = 0 | PIK4CA 0 | PIK4CB 0 | PLK1 = 0 | PRKAA1 = 0 | PRKCA 0 | PTK2 = 0 | PTK2B 0 | RAF1 = 0
active: [1] 1

Cc1cc(-c2cc(OC(=O)c3ccccc3)ccc2Cl)cc2nnc(Nc3ccc(OCCN4CCCC4)cc3)nc12 (0.5 µM)
inactive: PDPK1 = 0 | PIK4CA 0 | PIK4CB 0 | PLK1 = 0 | PRKAA1 = 0 | PRKCA 0 | PTK2 = 0 | PTK2B 0 | RAF1 = 0 | [1] 0

CN(CCNc1ccc2ncc(-c3ccc(C(N)=O)cc3)n2n1)C(=O)OC(C)(C)C (10 µM)
inactive: PDPK1 = 0 | PIK4CA 0 | PIK4CB 0 | PLK1 = 0 | PRKAA1 = 0 | PRKCA 0 | PTK2 = 0 | PTK2B 0 | RAF1 = 0 | [1] 0

OC[C@H]1O[C@@H](Oc2cc3c(O)cc(O)cc3[o+]c2-c2cc(O)c(O)c(O)c2)[C@H](O)[C@@H](O)[C@@H]1O [Delphinidin 3-glucoside (chloride)] (10 µM)
inactive: PDPK1 = 0 | PIK4CA 0 | PIK4CB 0 | PLK1 = 0 | PRKAA1 = 0 | PRKCA 0 | PTK2 = 0 | PTK2B 0 | RAF1 = 0 | [1] 0

Cc1c(CN2CCN(S(C)(=O)=O)CC2)sc2c(N3CCOCC3)nc(-c3cnc(N)nc3)nc12 (2.5 µM)
inactive: PDPK1 = 0 | PIK4CA 0 | PIK4CB 0 | PLK1 = 0 | PRKAA1 = 0 | PRKCA 0 | PTK2 = 0 | PTK2B 0 | RAF1 = 0 | [1] 0

COc1ccc(Cn2cc(C(=O)N=Nc3c(O)[nH]c4c(C)cccc34)nn2)cc1 [MARK4 inhibitor 1] (10 µM)
inactive: PDPK1 = 0 | PIK4CA 0 | PIK4CB 0 | PLK1 = 0 | PRKAA1 = 0 | PRKCA 0 | PTK2 = 0 | PTK2B 0 | RAF1 = 0 | [1] 0
